Reference: PMC7819943, “Rice protein-binding microarrays: a tool to detect cis-acting elements near promoter regions in rice”
The list shows a part of the results.

target: T1, OsSMF1 (Oryza sativa, UniProt Q6ZLB0 1-436); experiment: protein-binding microarray (RPBM); PBS, 2% BSA, 51.3 ng/ul salmon testes DNA, 50 uM zinc acetate, 200 nM TF, 25 C, 1 h; high values mean tight binding; settings: protein: recombinant; tags: N-terminal polyhistidine and DsRed monomer fusion (pET32a); chain copies: 2; label: CyDye5-dUTP incorporated in the synthesized complementary strand; 3' TTTTT single-stranded linker to array surface; dsDNA, one strand shown
T1 sequence: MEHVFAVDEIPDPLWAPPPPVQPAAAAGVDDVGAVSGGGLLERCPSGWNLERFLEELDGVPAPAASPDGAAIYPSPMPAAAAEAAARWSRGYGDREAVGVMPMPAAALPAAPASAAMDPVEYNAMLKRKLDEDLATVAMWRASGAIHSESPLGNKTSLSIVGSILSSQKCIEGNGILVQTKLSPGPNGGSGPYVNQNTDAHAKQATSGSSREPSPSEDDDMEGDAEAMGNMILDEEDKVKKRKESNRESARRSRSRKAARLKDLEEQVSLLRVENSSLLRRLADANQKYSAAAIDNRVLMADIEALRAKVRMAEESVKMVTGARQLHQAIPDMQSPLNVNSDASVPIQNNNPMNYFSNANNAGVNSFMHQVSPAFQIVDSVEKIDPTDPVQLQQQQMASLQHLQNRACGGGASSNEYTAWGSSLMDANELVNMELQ
Summary of the method: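 The binding signal is fluorescence intensity per array feature (arbitrary units). Readings came from an Axon 4000B scanner after a washed, 2% BSA-blocked, double-stranded custom Agilent array had been incubated for 1 h at 25 °C with 200 nM protein and 50 µM zinc acetate. The protein was a Ni–NTA-purified transcription factor fused N-terminally to polyhistidine and DsRed, expressed in E. coli BL21-CodonPlus.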

Going from “AACGCTGCGTCAGGAGAGCGACCACACGGTGTCCCGTCCCCGGAGTCACCTAGTGCAG” to “ACACTAATTTCAAGGTTGCTCGTGAGTCATAATCCTGACGCGGAGTCACCTAGTGCAG”, the binding signal rises from 3260 fluorescence intensity (a.u.) to 7720 fluorescence intensity (a.u.).

Compared with “ATCTCTTTGATAGTTGACATCGAGGCAGTGATTAATTAAGCGGAGTCACCTAGTGCAG”, “CGCTTCTCTCCCTGAGCTCGGCCTCGTGTCACTGACGTCGCGGAGTCACCTAGTGCAG” is higher in binding signal: 3400 fluorescence intensity (a.u.) for the first, 4390 fluorescence intensity (a.u.) for the second.

First: AACCACCCTCCGCCGCCGCCGCCGCTCGCCGTAGTCACCTCGGAGTCACCTAGTGCAG
Second: TCCAGGGCCCCATCTACGTCGGCACCGGCTGCTTGTTCCGCGGAGTCACCTAGTGCAG
The binding signal of the first is lower: 3180 fluorescence intensity (a.u.) for the first, 3900 fluorescence intensity (a.u.) for the second.

Compared with “GGCTGCATCCATGGCCCAGGCATGACAACCCATCGTGCTTCGGAGTCACCTAGTGCAG”, “AAGATGGTGTAGGAGAGACTGACGTGTGGGTCCCAGTGTCCGGAGTCACCTAGTGCAG” is higher in binding signal: 3450 fluorescence intensity (a.u.) for the first, 6640 fluorescence intensity (a.u.) for the second.

Compared with “TTAGGTGGAGCTGAAACTGTTTGGCTGAGCTGGGGTGGAGCGGAGTCACCTAGTGCAG”, “CCCCGTTGCCGACATCGATGTGTGCCACACTATCGGACCTCGGAGTCACCTAGTGCAG” is lower in binding signal: 3700 fluorescence intensity (a.u.) for the first, 3360 fluorescence intensity (a.u.) for the second.

Going from “GTGTGTGTGTGTGTGTGTGTGTGCGTGGGGCGAAGGGAGGCGGAGTCACCTAGTGCAG” to “AGACAAGTAGGCATGTAAGTGACTCTAATTGCATGCAGTTCGGAGTCACCTAGTGCAG”, the binding signal falls from 4110 fluorescence intensity (a.u.) to 3970 fluorescence intensity (a.u.).

Compared with “GCTGTTCAGTCGTCTCGTCAGCACGTACGCCCATCTTTGTCGGAGTCACCTAGTGCAG”, “TCGTGTTGATCTCCCATAGGGGCGGGCAGCTGCCTCCAGTCGGAGTCACCTAGTGCAG” is lower in binding signal: 6250 fluorescence intensity (a.u.) for the first, 3220 fluorescence intensity (a.u.) for the second.

Going from “GGATGTTGGAAATAAACACGTCATGGTGTATTCCTGGCGTCGGAGTCACCTAGTGCAG” to “GGGTCGGCAATGAATATTTGTTCTCGAGTGACGTACAGCACGGAGTCACCTAGTGCAG”, the binding signal falls from 18700 fluorescence intensity (a.u.) to 4240 fluorescence intensity (a.u.).

First: CGCGAACACCTGGCGCCCATCCACGCATGCATCCATGCCACGGAGTCACCTAGTGCAG
Second: TGTACAGCTCACTCATCACTGATCCGTCCCATGTGGTTCACGGAGTCACCTAGTGCAG
The binding signal of the first is higher: 4190 fluorescence intensity (a.u.) for the first, 3660 fluorescence intensity (a.u.) for the second.

Going from “TCGGCGAACGTACTTCTTGTCAGCCAGCTTATAGCCATTGCGGAGTCACCTAGTGCAG” to “AATGCCGTCCGCCCACGTGGCCAACCCGCGACCACCCGCGCGGAGTCACCTAGTGCAG”, the binding signal rises from 3850 fluorescence intensity (a.u.) to 15000 fluorescence intensity (a.u.).

Compared with “TTATTTGATGACTCGCTTCTCGTCCCACAGAAAATCTTCTCGGAGTCACCTAGTGCAG”, “TTATCAATCGTCATTATACTGTGTGTAACCTGTTGGATGACGGAGTCACCTAGTGCAG” is lower in binding signal: 4140 fluorescence intensity (a.u.) for the first, 3320 fluorescence intensity (a.u.) for the second.

Going from “CGATGGCTGCCACTGCCAACGTCAAGCTCCTCTCCGACGGCGGAGTCACCTAGTGCAG” to “GGCGGTGCTCGTCGCCGGCGCCGCCGTCAGCAATGCGCAGCGGAGTCACCTAGTGCAG”, the binding signal rises from 3850 fluorescence intensity (a.u.) to 5490 fluorescence intensity (a.u.).

Going from “AAGATATAGTAACCCAGTCTTCTGGAGATATTCATATAGGCGGAGTCACCTAGTGCAG” to “GAAGTTTCTAGAAGCTTATTCCAAGCTCCACGATGCCCTCCGGAGTCACCTAGTGCAG”, the binding signal falls from 3860 fluorescence intensity (a.u.) to 3380 fluorescence intensity (a.u.).

First: CGGGAGAGAGGATCGGGAGAGATAGGGTTAGGGTTAGGGTCGGAGTCACCTAGTGCAG
Second: AGCAGGTGACACGGCGGCGGCGTCTCGCCGGCGTGGAGTGCGGAGTCACCTAGTGCAG
The binding signal of the first is lower: 3320 fluorescence intensity (a.u.) for the first, 3810 fluorescence intensity (a.u.) for the second.

Going from “GTCACGTACGTGCAGACCATGACCTGCTCTCCCAACATTTCGGAGTCACCTAGTGCAG” to “TGCTGATTGGCGCTCCCCACGTTGGCAAGATTAGGTGATCCGGAGTCACCTAGTGCAG”, the binding signal falls from 28900 fluorescence intensity (a.u.) to 4620 fluorescence intensity (a.u.).

Compared with “CTAGCGAAAATCTAAAATGGCCGCCACGAAAGATGGTTTTCGGAGTCACCTAGTGCAG”, “TTTGGGACCTTTAGCTATCGCAGGAAAGAACCGTCGACACCGGAGTCACCTAGTGCAG” is higher in binding signal: 3410 fluorescence intensity (a.u.) for the first, 27100 fluorescence intensity (a.u.) for the second.

Going from “GAGCGTGGACACGACTACGCCACGTCGGATAGCACATCATCGGAGTCACCTAGTGCAG” to “GGTTTTAACTTAGGTGGCGGCTGAGTCAGCGTGGGACCCACGGAGTCACCTAGTGCAG”, the binding signal falls from 14600 fluorescence intensity (a.u.) to 11600 fluorescence intensity (a.u.).

Compared with “ACTGCTTACTCTTAATCTTTATACACGCCATTTAGAGGCACGGAGTCACCTAGTGCAG”, “GGGCGTTGCGGCCGTCACACGTGGTATGGGAGGGCGCCGCCGGAGTCACCTAGTGCAG” is higher in binding signal: 3640 fluorescence intensity (a.u.) for the first, 5820 fluorescence intensity (a.u.) for the second.

Going from “ACGCGCCGATTCCGAAGAAATCAATCAACCAACTACTAGGCGGAGTCACCTAGTGCAG” to “AGCTTACGTTATTCTTGATCCCTTCCTAAATTATCTGGCGCGGAGTCACCTAGTGCAG”, the binding signal falls from 19200 fluorescence intensity (a.u.) to 19100 fluorescence intensity (a.u.).

First: GCGCGGCGCGTGACGGCGGTCATCGGTCAAAGACACGAACCGGAGTCACCTAGTGCAG
Second: GTGAGACACCCAAAGATCGTGTATTTGTTTGTAGACACGGCGGAGTCACCTAGTGCAG
The binding signal of the first is lower: 3140 fluorescence intensity (a.u.) for the first, 3150 fluorescence intensity (a.u.) for the second.

Going from “AAGCACGTATCCCCACTTCACGATGATTGGGCAAAGTCTTCGGAGTCACCTAGTGCAG” to “TCGATCTGTTTCGCTTTGCTTCCGTCAGCCACCGAATTTGCGGAGTCACCTAGTGCAG”, the binding signal rises from 3930 fluorescence intensity (a.u.) to 4570 fluorescence intensity (a.u.).
